The text below walks through data of US7652031B2, “Compounds which mimic the chemical and biological properties of discodermolide” (priority 2001, dated 2010).

The test system of one test is A549 cells. Put plainly: Cytotoxicity assay, A549 cells. Particulars: Homo sapiens, A549, 72 h, read-out: A549 (IC50(μm)). Format: cell-based. How it is done:
The A549 lung carcinoma cell line was maintained as described in Kavallaris, M., et al., “Taxol-resistant epithelial ovarian tumors are associated with altered expression of specific β-tubulin isotypes”, J. Clin. Invest., 1997, 100, 1282-1293.
(§1) A549 cells were seeded in triplicate at a density of 1×10^4 cells/ml in 6-well plates and allowed to attach for 24 h. After incubation with various drug concentrations for 72 h, adherent cells were trypsinized and counted (Coulter Counter model Z1; Coulter Corp., Miami, Fla.), and the IC50 was determined. SKOV3 cells were seeded at a density of 2×10^4 cells/ml and the above procedure followed.

The next test has as its system SKOV3 cells. Put plainly: Cytotoxicity assay, SKOV3 cells. Format: cell-based. Particulars: Homo sapiens, SK-OV-3, 72 h, read-out: SKOV3 (IC50(μm)). The protocol:
The SKOV3 ovarian carcinoma cell line was obtained from Dr. V. Ling and was maintained as described in McDaid, H. M., et al., “Structure-activity profiles of eleutherobin analogs and their cross-resistance in Taxol-resistant cell lines”, Cancer Chemother. Pharmacol., 1999, 44, 131-137.
as §1

One may read the IC50 as the concentration that gives 50% inhibition. For the molecule `CC(=O)O[C@H]1C(=O)[C@@]2(C)[C@H]([C@H](OC(=O)c3ccccc3)[C@]3(O)C[C@H](OC(=O)[C@H](O)[C@@H](NC(=O)c4ccccc4)c4ccccc4)C(C)=C1C3(C)C)[C@]1(OC(C)=O)CO[C@@H]1C[C@@H]2O` [Taxol], the IC50 worked out at 1.4 nM in the test with A549 cells and 3.3 ± 0.5 nM with SKOV3 cells.
